# Measurements: PubChem BioAssay AID1259354 (Paczesny and Yang Labs, IUPUI and University of Michigan, 2018)
# Amino acid sequences for entries named in this document (tags omitted). A change or cut given only in a name is not applied to a line headed by its entry.
# UniProt Q01638: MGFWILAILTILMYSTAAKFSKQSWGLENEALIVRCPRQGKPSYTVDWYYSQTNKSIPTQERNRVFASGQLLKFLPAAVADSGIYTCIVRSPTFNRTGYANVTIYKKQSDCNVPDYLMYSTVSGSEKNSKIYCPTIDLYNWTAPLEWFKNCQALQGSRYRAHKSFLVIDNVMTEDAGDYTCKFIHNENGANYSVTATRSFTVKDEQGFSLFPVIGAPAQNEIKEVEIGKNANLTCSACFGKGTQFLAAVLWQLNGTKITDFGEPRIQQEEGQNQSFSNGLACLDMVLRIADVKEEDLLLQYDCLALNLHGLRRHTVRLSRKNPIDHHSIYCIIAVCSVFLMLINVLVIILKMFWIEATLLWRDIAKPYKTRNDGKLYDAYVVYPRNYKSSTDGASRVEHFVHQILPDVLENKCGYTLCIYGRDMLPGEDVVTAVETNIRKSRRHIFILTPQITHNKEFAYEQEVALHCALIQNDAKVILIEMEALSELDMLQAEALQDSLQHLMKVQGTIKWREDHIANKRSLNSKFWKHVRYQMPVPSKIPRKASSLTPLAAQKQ
# The campaign covered roughly 78,000 compounds. About 1,800 (2.3%) were called active. The inconclusive results got no clear call from the source; some entries with a clear call stand among them for comparison. No stated cut-off is given here; in the data, active means inhibition above about 30%; inconclusive means mostly about 10% to 28%; inactive means weaker than that.
# Biological target: Interleukin-1 receptor-like 1 (Homo sapiens) (UniProt Q01638)
# Test: blocks human ST2 binding to IL-33, primary screen, biochemical, AlphaLISA (AID 1259354)
# Conditions: AlphaLISA ST2-Fc/biotin-IL-33 interaction, 1 h; at 17 µM, stronger effect = higher value
row,Structure (SMILES),inhibition
1,CN(Cc1ccc2ccccc2n1)C(=O)c1ccc(CSc2ncn[nH]2)o1,inconclusive: 11%
2,COCCNC(=O)CN1C(=O)/C(=C/c2ccccc2F)Sc2ccccc21,inconclusive: 19%
3,O=S(=O)(NCc1ccccc1)N1CCCCC1c1cccnc1 (configuration not stated),inconclusive: 19%
4,CN1[C@@H](CCC(=O)N2CCN(c3ccccn3)CC2)CNC(=O)[C@@H]2[C@H]1CCN2Cc1cccs1,inactive
5,Cc1ccc(S(=O)(=O)N(CC(=O)NC2CC2)Cc2ccccc2F)cc1,inconclusive: 13%
6,C=CCN1CCc2c(cc(O)c(O)c2Br)[C@@H](c2ccccc2)C1,inconclusive: 20%
7,COc1ccc2oc(=Nc3ccc(Cl)cc3Cl)c(C(=O)NC(C)=O)cc2c1,active: 33%
8,Cc1ccc(-c2noc([C@@H]3C[C@@H](O)CN3C(C)C)n2)cc1F,inactive
9,COc1cccc(C2CC(c3cccs3)=NN2C(C)=O)c1OC (configuration not stated),inconclusive: 13%
10,O=C(O)C1CSC(c2ccccc2O)=N1 (configuration not stated),inconclusive: 14%
11,O=C(Nc1ccccc1)C(=O)N1CCc2c(ncnc2N2CCOCC2)C1,inconclusive: 22%
12,N#CC(C#N)=C1NC2(CCCCC2)Cc2ccccc21,inconclusive: 11%
13,Cc1cc(N2CCC(C3(c4cccnc4)NC(=O)NC3=O)CC2)nc2ccccc12 (configuration not stated),inconclusive: 18%
14,CCOC(=O)c1c(C)n(C)c2ccc(OCC#N)cc12,inconclusive: 21%
15,O=C1C[C@H]2CC[C@@H](CN1)N2C(=O)c1ccno1,inconclusive: 25%
16,Cc1cc(CC(=O)N2C[C@H]3OC(=O)N(Cc4ccccn4)[C@H]3C2)on1,inconclusive: 11%
17,O=c1cc(-c2ccc(O)c(O)c2)oc2cc(O[C@@H]3O[C@H](CO)[C@@H](O)[C@H](O)[C@H]3O)cc(O)c12,inconclusive: 19%
18,COc1cccc(NC(=O)NC[C@H]2O[C@@H](CO)[C@@H](O)[C@H]2N2CCC(C)CC2)c1,inactive
19,O=C1/C(=C/c2ccc(F)cc2)CC/C1=C\c1ccc(F)cc1,inconclusive: 23%
20,COc1cc(C2CC(=O)C3=C(C2)Nc2ccccc2NC3c2cccs2)cc(OC)c1OC (configuration not stated),inconclusive: 16%
21,CCOc1ccc(Br)cc1S(=O)(=O)N1CCN(c2nc(C)cc(N(C)C)n2)CC1,inconclusive: 19%
22,Cc1nc(N2CCOCC2)nc(NCc2ccccc2)c1[N+](=O)[O-],inconclusive: 17%
23,O=C(CCCc1ccccc1)Nc1ccc([N+](=O)[O-])cc1,inconclusive: 12%

row,Structure (SMILES),inhibition
1,Cc1cccc(=O)n1CCCn1cc(-c2ccc3c(c2)OCCO3)nn1,inconclusive: 15%
2,CS(=O)(=O)Cc1ccc(N2C[C@@H]3[C@H](C2)[C@H]2CC[C@@H]3O2)nc1,inconclusive: 17%
3,O=C(NCCC1=CCCCC1)c1ccc2c(c1)N(Cc1ccccc1F)C(=O)CS2,inactive
4,CCOC(=O)c1c(C)oc2ccc(OCC(=O)O)cc12,inconclusive: 11%
5,COCCOc1cc(C)c2c(c1C)C[C@H]([C@H](C)C(=O)N1CCOCC1)CC2,inactive
6,Cn1nnnc1SCCNC(=O)C1(c2ccccc2F)CC1,inconclusive: 10%
7,CN1CCN([C@H]2[C@@H]3OC[C@@H](O3)[C@@H](NC(=O)Nc3cccc(C#N)c3)[C@@H]2O)CC1,inconclusive: 27%
8,Cc1cccc(NC2=C([N+](=O)[O-])CS(=O)(=O)C2)c1,inconclusive: 17%
9,CC(=O)NC1=NC(=O)/C(=C/c2ccc(OCc3ccccc3F)cc2)S1,inactive
10,COc1cc2c(cc1OC)C(C)N(C(=O)c1cccc(Br)c1)CC2 (configuration not stated),inconclusive: 20%
11,CCC(=O)N1CCc2cc(Br)cc(S(=O)(=O)N(CC(C)C)CC(C)C)c21,inconclusive: 13%
12,O=C(C1CC1)N1CCc2cc(Br)cc(S(=O)(=O)NCc3ccco3)c21,inconclusive: 11%
13,CCOC(=O)c1nn(CCC(F)(F)F)c2c1CN(C(=O)c1cc3ccccc3cn1)CC2,inconclusive: 15%
14,O=C1CN(C(=O)c2ccc(F)c(Cl)c2)CC(OCc2ccccn2)CN1Cc1ccccc1 (configuration not stated),inactive
15,COc1cc2c(C(=O)N3CCN(c4ccccc4)CC3)cn(C)c(=O)c2cc1OC,inconclusive: 15%
16,CC1(C)Cc2c(c(N3CCOCC3)nc3sc4c(NCCc5ccccc5)ncnc4c23)CO1,inconclusive: 23%
17,Cc1cc(C)cc(N(C(=O)c2ccccc2F)C2C=CS(=O)(=O)C2)c1 (configuration not stated),inconclusive: 11%
18,C#Cc1ccc(CN2CCN(C3CCCCC3)C(CCO)C2)cc1 (configuration not stated),inconclusive: 12%
19,CCOC(=O)c1c(NC(=O)CCCn2nc(C)c([N+](=O)[O-])c2C)sc(C)c1C,inconclusive: 18%
20,Cc1cc(F)ccc1NC(=O)CCC1CCCN(C(=O)C2=CCCC2)C1 (configuration not stated),inconclusive: 20%
21,O=C1c2ccccc2C(=O)C1(c1ccccc1)C(C[N+](=O)[O-])c1ccc2c(c1)OCO2 (configuration not stated),inconclusive: 12%
22,CCC(=O)Nc1ccc2nn(-c3ccc(C)c(Cl)c3)nc2c1,inconclusive: 10%
23,Cc1cc(I)ccc1N1C(=N)SCC1=O,inactive

row,Structure (SMILES),inhibition
1,COC(=O)C1C(=O)C2=C(CC1C)NC(C)=C(C(=O)OC(C)C)C2c1ccccc1OC(C)C (configuration not stated),inconclusive: 10%
2,COc1ccc(NC(=O)c2oc3ccccc3c2NC(=O)C(C)(C)C)c(OC)c1,inactive
3,O=C(CC1COCCN1)NCc1ccc(N2CCCC2=O)cc1 (configuration not stated),inconclusive: 21%
4,CCn1ccnc1CN1CCC(CNC(=O)C2CCCCC2)C1 (configuration not stated),inconclusive: 13%
5,Cc1ccc(NC(=O)NC[C@H]2O[C@@H](CC(=O)NCCN3CCOCC3)[C@H](O)[C@@H]2O)cc1,inconclusive: 18%
6,COc1ccc(CCn2cnc3sc4c(c3c2=N)CCCC4)cc1OC,inactive
7,COc1cc2c(cc1OC)[C@H]1CN3CCc4cc(OC)c(OC)cc4[C@@H]3CN1CC2,inactive
8,Cc1nc2cc(C(=O)N3CCNC(=O)C3)ccc2s1,inactive
9,CCN(C(=O)c1ccccc1F)c1ccccc1,inactive
10,Cc1ccccc1Cn1cc(NC(=O)CCCn2nc(C)c([N+](=O)[O-])c2C)cn1,inconclusive: 10%
11,Cc1cccc(C)c1Nc1c(-c2ccc(N(C)C)cc2)nc2cnccn12,inactive
12,COc1ccc2[nH]c(C(=O)N3CC(c4cccnc4)C3)c(C)c2c1,inconclusive: 13%
13,COc1cc(NC(=O)NCCc2nc3cccnc3n2C2CCCCC2)cc(OC)c1OC,inactive
14,COc1nc(Oc2ccc(/C=N\O)cc2)nc(N(C)C)n1,inactive
15,O=C(N[C@H]1CCN2C(=O)c3cc(-c4ccc(F)cc4F)ccc3NC(=O)[C@H]12)C1CCCC1,inconclusive: 11%
16,COc1ccc(OC)c(C2CCN(CCC(=O)Nc3nccs3)C2)c1 (configuration not stated),inconclusive: 21%
17,Cc1ccc(CN2CCc3ccccc3C2)o1,inconclusive: 12%
18,O=C(O[n+]1ccc(N2CCOCC2)cc1)N(c1ccccc1)c1ccccc1,inactive
19,Cc1[nH]c2ccc(Cl)cc2c(=O)c1CN1CCN(C)CC1,inactive
20,Cc1ccc2c(C(=O)CNc3nccs3)c(C)[nH]c2c1,inconclusive: 24%
21,CN(C)[C@@H]1C[C@@H](C(=O)O)N(Cc2ncc[nH]2)C1,inconclusive: 23%
22,c1ccc(N=c2scc(-c3ccccc3)n2Cc2cccnc2)cc1,active: 41%
23,NC(=O)CCSc1ccc(Cl)cc1,inconclusive: 10%

row,Structure (SMILES),inhibition
1,COc1cccc2c1OCC(C(=O)N1CCc3c(nc(C)[nH]c3=O)C1)C2 (configuration not stated),inactive
2,COc1cc(C2N(C(C)=O)CCN2S(=O)(=O)c2ccc(C)cc2)ccc1O (configuration not stated),inactive
3,O=[N+]([O-])c1cccc(-c2noc([C@@H]3C[C@@H](O)CN3Cc3ccc(F)cc3)n2)c1,inconclusive: 12%
4,COc1ccc(CN2C(=O)CO[C@H]3CN(c4ncccn4)C[C@H]32)cc1,inconclusive: 12%
5,COc1ccc(-c2ccno2)cc1S(=O)(=O)N1C[C@H]2CC=CC[C@H]2C1,inconclusive: 18%
6,CCNc1ncc(C(=O)N2CCN(Cc3ccc(F)cc3)C(=O)C2)cn1,inactive
7,CC(C)c1cc(NC(=O)c2cccc(CN(C)CCO)c2)n(C)n1,inactive
8,O=C1NC(=O)/C(=C\c2ccc(-c3ccc([N+](=O)[O-])cc3)o2)S1,inconclusive: 10%
9,COc1cc(/C=C2/C(=O)NN(c3ccc(C)cc3)C2=O)cc([N+](=O)[O-])c1O,inconclusive: 16%
10,Cc1ccc(C(=O)NC2=NCCS2)o1,inactive
11,C=CCNC(=O)N[C@H]1CCN2C(=O)c3ccc(Cl)cc3NC(=O)[C@@H]2C1,inconclusive: 15%
12,Fc1ccc(CN2CCc3ccccc3C2)cc1Br,inconclusive: 15%
13,COc1cccc(NC(=O)Cn2cnc3c(oc4ccccc43)c2=O)c1,inactive
14,OCC1(CC2CCCCO2)CCN(c2nnnn2-c2ccccc2)CC1 (configuration not stated),inconclusive: 12%
15,CCOc1ccc(S(=O)(=O)Nc2cccc(CC)c2)c2cccnc12,inactive
16,CC(c1ccon1)N(C)CC(=O)Nc1nc2ccccc2[nH]1 (configuration not stated),inconclusive: 17%
17,CCCCOc1ccc(C(=O)Nc2ccc(-c3nc4ncccc4o3)cc2)cc1,inconclusive: 16%
18,COc1cc(OC)cc(-c2cc3nc(C)c(CCC(=O)Nc4ccc5c(c4)OCO5)c(C)n3n2)c1,inconclusive: 16%
19,CC1(C)Cc2c(c(N3CCOCC3)nc3sc4c(=O)[nH]cnc4c23)CO1,inconclusive: 13%
20,COC(=O)CSc1nc(-c2cccs2)cc(-c2ccc(F)cc2)c1C#N,inconclusive: 11%
21,Cc1ccc(NC(=O)c2ccccc2I)cc1[N+](=O)[O-],inconclusive: 11%
22,C=CCN(CC=C)S(=O)(=O)c1ccc(C(=O)Nc2nnc(COC)o2)cc1,inconclusive: 10%
23,COc1nccnc1NS(=O)(=O)c1ccc(NS(=O)(=O)c2ccc(NC(C)=O)cc2)cc1,inconclusive: 11%

# 4 entries from above, sorted by heavy-atom count, falling.
row,Structure (SMILES),inhibition
18,COc1cc(OC)cc(-c2cc3nc(C)c(CCC(=O)Nc4ccc5c(c4)OCO5)c(C)n3n2)c1,inconclusive: 16%
20,COC(=O)CSc1nc(-c2cccs2)cc(-c2ccc(F)cc2)c1C#N,inconclusive: 11%
7,CC(C)c1cc(NC(=O)c2cccc(CN(C)CCO)c2)n(C)n1,inactive
12,Fc1ccc(CN2CCc3ccccc3C2)cc1Br,inconclusive: 15%
